The text below walks through data of paper PMC8384837.

What all share (details): yeast three-hybrid, YBZ-1, SC-Leu-His + 0.5 mM 3-AT, 4 days
Experiment [1] deals with T1, PUM1 PUF domain R5-CAR R1008A + Q1011R (Homo sapiens) (UniProt Q14671).
T1 sequence: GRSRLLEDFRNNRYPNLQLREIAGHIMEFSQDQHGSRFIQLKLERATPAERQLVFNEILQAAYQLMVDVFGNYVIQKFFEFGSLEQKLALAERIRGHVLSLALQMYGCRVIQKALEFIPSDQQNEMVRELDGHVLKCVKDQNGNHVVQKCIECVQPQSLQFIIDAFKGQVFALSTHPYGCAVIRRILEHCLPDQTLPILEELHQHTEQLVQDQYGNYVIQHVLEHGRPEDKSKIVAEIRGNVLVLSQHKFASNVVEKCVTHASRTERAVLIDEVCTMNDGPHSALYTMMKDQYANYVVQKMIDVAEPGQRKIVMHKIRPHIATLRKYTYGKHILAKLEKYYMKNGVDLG

Experiment [2] deals with T2, PUM1 PUF domain R5-DKQ C1007D + R1008K (Homo sapiens) (UniProt Q14671).
T2 sequence: T1 sequence with C180D, A181K, R184Q

Experiment [3] addresses T3, PUM1 PUF domain R5-FRT C1007F + Q1011T (Homo sapiens) (UniProt Q14671).
T3 sequence: T1 sequence with C180F, A181R, R184T

Experiment [4] concerns the target T4, PUM1 PUF domain R5-GKD C1007G + R1008K + Q1011D (Homo sapiens) (UniProt Q14671).
T4 sequence: T1 sequence with C180G, A181K, R184D

In experiment [5] the target is T5, PUM1 PUF domain R5-GKH C1007G + R1008K + Q1011H (Homo sapiens) (UniProt Q14671).
T5 sequence: T1 sequence with C180G, A181K, R184H

Experiment [6] addresses T6, PUM1 PUF domain R5-GKN C1007G + R1008K + Q1011N (Homo sapiens) (UniProt Q14671).
T6 sequence: T1 sequence with C180G, A181K, R184N

For experiment [7], the target named is T7, PUM1 PUF domain R5-KGL C1007K + R1008G + Q1011L (Homo sapiens) (UniProt Q14671).
T7 sequence: T1 sequence with C180K, A181G, R184L

In experiment [8] the target is T8, PUM1 PUF domain R5-KRF C1007K + Q1011F (Homo sapiens) (UniProt Q14671).
T8 sequence: T1 sequence with C180K, A181R, R184F

The target in experiment [9] is T9, PUM1 PUF domain R5-KRK C1007K + Q1011K (Homo sapiens) (UniProt Q14671).
T9 sequence: T1 sequence with C180K, A181R, R184K

In experiment [10] the target is T10, PUM1 PUF domain R5-KRR C1007K + Q1011R (Homo sapiens) (UniProt Q14671).
T10 sequence: T1 sequence with C180K, A181R

The target of experiment [11] is T11, PUM1 PUF domain R5-KRV C1007K + Q1011V (Homo sapiens) (UniProt Q14671).
T11 sequence: T1 sequence with C180K, A181R, R184V

For experiment [12], the target named is T12, PUM1 PUF domain R5-KSC C1007K + R1008S + Q1011C (Homo sapiens) (UniProt Q14671).
T12 sequence: T1 sequence with C180K, A181S, R184C

The target of experiment [13] is T13, PUM1 PUF domain R5-KSG C1007K + R1008S + Q1011G (Homo sapiens) (UniProt Q14671).
T13 sequence: T1 sequence with C180K, A181S, R184G

For experiment [14], the target named is T14, PUM1 PUF domain R5-RGK C1007R + R1008G + Q1011K (Homo sapiens) (UniProt Q14671).
T14 sequence: T1 sequence with C180R, A181G, R184K

Experiment [15] concerns the target T15, PUM1 PUF domain R5-RGR C1007R + R1008G + Q1011R (Homo sapiens) (UniProt Q14671).
T15 sequence: T1 sequence with C180R, A181G

In experiment [16] the target is T16, PUM1 PUF domain R5-RQD C1007R + R1008Q + Q1011D (Homo sapiens) (UniProt Q14671).
T16 sequence: T1 sequence with C180R, A181Q, R184D

The target of experiment [17] is T17, PUM1 PUF domain R5-RRF C1007R + Q1011F (Homo sapiens) (UniProt Q14671).
T17 sequence: T1 sequence with C180R, A181R, R184F

In experiment [18] the target is T18, PUM1 PUF domain R5-RSR C1007R + R1008S + Q1011R (Homo sapiens) (UniProt Q14671).
T18 sequence: T1 sequence with C180R, A181S

The target in experiment [19] is T19, PUM1 PUF domain R5-SQG C1007S + R1008Q + Q1011G (Homo sapiens) (UniProt Q14671).
T19 sequence: T1 sequence with C180S, A181Q, R184G

Experiment [20] concerns the target T20, PUM1 PUF domain R5-WRD C1007W + Q1011D (Homo sapiens) (UniProt Q14671).
T20 sequence: T1 sequence with C180W, A181R, R184D

Substitutions are numbered along the chain they refer to. The list shows a part of the results.

Consider “GGCUAGAACUAGUGGAUCCCCCGGCGCCCGGCGGCUCGAGCCCGGGUAAGUGUAAAUAGUCUGCAUGCCGCCGGGCGCCAUGCCUGCAGGUCGACUCUAGAAAACAUG”, for which the binding signal (log2 enrichment (interaction score)) is 0.26 in experiment [1]; 0.09 in experiment [2]; 0.12 in experiment [3]; 0.32 in experiment [4]; -0.81 in experiment [5]; 0.23 in [6]. In addition, the binding signal (log2 enrichment (interaction score)) in [7] worked out at 0.21; in experiment [8], 0.19; in experiment [9], 0.33; in experiment [10] it was 0.16; in [11], 0.16; in [12] it was 0.17. Further, the binding signal (log2 enrichment (interaction score)) is 0.06 in experiment [13]; 0.17 in experiment [14]; 0.16 in experiment [15]; 0.15 in [16]; 0.19 in [17]; -0.25 in [18]. Also, the binding signal (log2 enrichment (interaction score)) in experiment [19] is 0.19; in [20], -1.4.
